In PMC6554350:
These are yes or no findings as the source states them, for the method shown. Binding seen in cells or lysates may run through a third protein. Some results given as binding are weak or reduced against the parent protein; the word gives no strength.

Amino acid sequences for entries named in this document (tags omitted).
UniProt P10361: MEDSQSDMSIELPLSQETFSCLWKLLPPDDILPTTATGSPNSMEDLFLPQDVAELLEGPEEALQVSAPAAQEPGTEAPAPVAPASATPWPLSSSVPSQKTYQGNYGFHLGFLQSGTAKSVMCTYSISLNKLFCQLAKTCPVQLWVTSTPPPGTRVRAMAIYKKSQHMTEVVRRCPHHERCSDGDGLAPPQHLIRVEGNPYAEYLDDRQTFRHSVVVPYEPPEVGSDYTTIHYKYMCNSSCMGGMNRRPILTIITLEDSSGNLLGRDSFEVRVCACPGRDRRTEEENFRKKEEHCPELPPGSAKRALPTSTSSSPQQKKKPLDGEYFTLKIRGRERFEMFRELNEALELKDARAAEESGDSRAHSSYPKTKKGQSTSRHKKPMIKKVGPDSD
UniProt P47196: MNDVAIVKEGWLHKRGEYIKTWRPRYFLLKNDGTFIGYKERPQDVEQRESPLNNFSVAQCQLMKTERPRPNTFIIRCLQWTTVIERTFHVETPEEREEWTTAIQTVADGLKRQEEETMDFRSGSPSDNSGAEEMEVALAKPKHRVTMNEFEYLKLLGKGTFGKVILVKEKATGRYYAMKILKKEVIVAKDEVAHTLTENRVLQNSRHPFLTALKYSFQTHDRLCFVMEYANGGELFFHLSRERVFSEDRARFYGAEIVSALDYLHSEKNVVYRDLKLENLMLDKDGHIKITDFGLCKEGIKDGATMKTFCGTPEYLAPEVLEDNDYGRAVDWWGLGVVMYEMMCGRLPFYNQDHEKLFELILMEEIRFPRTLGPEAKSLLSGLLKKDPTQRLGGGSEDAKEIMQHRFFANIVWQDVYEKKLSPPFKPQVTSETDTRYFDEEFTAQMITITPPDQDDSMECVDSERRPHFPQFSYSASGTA

Molecular target: p53 (rat (endogenous in primary rat hepatocytes)) (UniProt P10361)
Assay: co-IP; cytoplasmic protein extract of primary rat hepatocytes; IP with anti-p53 (non-specific IgG as control), blot for p53 and AKT1; cells transfected with AV-CTR or AV-IGF-1 and treated or not with H2O2 (200 nM) for 24 h

binding: binds
Substance: AKT1 (from UniProt P47196 1-480)
